Screening data, single-dose tests

Mtb glucose medium: 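Phenotypic screen: M. tuberculosis growth, glucose 7H9 medium, 3 days; the read-out is not stated. Concentration: 50 µM. Direction is inferred from retests: higher values go with more growth inhibition. About 69,000 compounds were tested under these conditions; 1.1% (about 760) showed 50% or more at least once.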
Mtb cholesterol medium: 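Growth of Mycobacterium tuberculosis over 4 days (cholesterol / DPPC medium with tyloxapol); the read-out is not stated. Compounds at 50 µM. Higher reads as more growth inhibition (inferred: compounds with an IC50 in retests scored well above the rest). About 69,000 compounds were tested under these conditions; 0.54% (about 370) showed 50% or more at least once.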

Each number is a percent effect as filed.
The controls that fix the scale are not given in the record; negative values are as filed.
The compounds are a random part of those screened.
Two or more numbers in one place are separate tests of the same structure; such repeats can differ widely.

{"smiles": "CC(C)N(C)S(=O)(=O)N1CCN(Cc2ccco2)CC1", "Mtb glucose medium": "-27.39 & 2.366", "Mtb cholesterol medium": 2.12}
{"smiles": "CN1CCN(C(=O)CC2CCN(CCc3ccccn3)CC2)CC1", "Mtb glucose medium": 14.97, "Mtb cholesterol medium": -4.162}
{"smiles": "[H][C@@]12CN(c3ncccn3)C[C@@H](C(=O)NCCOC)[C@]1([H])CCO2", "Mtb glucose medium": 1.65, "Mtb cholesterol medium": -5.162}
{"smiles": "CCC1CN(C(=O)c2cc(CN(C)CCc3ccccc3)on2)CCO1", "stereo": "centres unmarked", "Mtb glucose medium": -3.761, "Mtb cholesterol medium": -6.487}
{"smiles": "O=C(CCCc1nc2ccccc2[nH]1)N1CCCC1c1ccncc1", "stereo": "centres unmarked", "Mtb glucose medium": -16.37, "Mtb cholesterol medium": "-1.824 & -25.26"}
{"smiles": "Cc1cnn(C2CCCN(C(=O)Cc3cn4ccccc4n3)C2)c1", "stereo": "centres unmarked", "Mtb glucose medium": 6.563, "Mtb cholesterol medium": 12.06}
{"smiles": "CN(CCCO)Cc1cc(Cl)ccc1OCC(O)CN1CCCCCC1", "stereo": "centres unmarked", "Mtb glucose medium": 50.48, "Mtb cholesterol medium": 2.139}
{"smiles": "CCOCC1CN(C(=O)c2ccncn2)Cc2cnn(CC)c21.O=C(O)C(F)(F)F", "stereo": "centres unmarked", "Mtb glucose medium": 32.99, "Mtb cholesterol medium": 1.681}
{"smiles": "c1ccc(-c2nnc3n2CCN(Cc2ccc4c(c2)OCCO4)C3)cc1", "Mtb glucose medium": 6.219, "Mtb cholesterol medium": 21.1}
{"smiles": "CC(=O)N1CCOC2(CCN(C(=O)c3cnoc3C)CC2)C1", "Mtb glucose medium": -4.553, "Mtb cholesterol medium": -7.415}
{"smiles": "O=C(NCCSc1cnn[nH]1)c1c[nH]nc1C1CCCCC1", "Mtb glucose medium": -1.978, "Mtb cholesterol medium": 10.92}
{"smiles": "COc1ccc(C(C)NCc2ccnn2C)cc1Cn1cccn1", "stereo": "centres unmarked", "Mtb glucose medium": 31.79, "Mtb cholesterol medium": "-19.59 & -4.516"}
{"smiles": "O=C(O)C(F)(F)F.c1coc(CN2CCCn3c(nnc3Cn3cccn3)C2)c1", "Mtb glucose medium": -7.15, "Mtb cholesterol medium": -13.33}
{"smiles": "Clc1cccc2c3c([nH]c12)CCN(Cc1cc2n(n1)CCNC2)C3", "Mtb glucose medium": 39.37, "Mtb cholesterol medium": -14.25}
{"smiles": "Cc1cc2nc(C(C)C)cc(NCc3ccncc3)n2n1", "Mtb glucose medium": 12.58, "Mtb cholesterol medium": -10.69}
{"smiles": "Cn1c(Cl)cnc1CN1CCCC1c1ccc2c(c1)OCCO2", "stereo": "centres unmarked", "Mtb glucose medium": -3.434, "Mtb cholesterol medium": "8.325 & -10.48"}
{"smiles": "Cc1cnccc1CN1C[C@@H](O)[C@H](Oc2ccccc2)C1", "Mtb glucose medium": -0.3503, "Mtb cholesterol medium": 23.89}
{"smiles": "CCCC(=O)N(CCCN1CCOCC1)c1nc2c(Cl)cccc2s1.Cl", "Mtb glucose medium": "2.765 & 19.72", "Mtb cholesterol medium": 3.149}
{"smiles": "Cc1nc(O)cc(CCNC(=O)C2CC(=O)N(CC(C)C)C2)n1", "stereo": "centres unmarked", "Mtb glucose medium": 9.04, "Mtb cholesterol medium": 91.99}
{"smiles": "Cc1ccc(C(CNC(=O)NCc2cc[nH]n2)N2CCOCC2)o1", "stereo": "centres unmarked", "Mtb glucose medium": -18.95, "Mtb cholesterol medium": -20.2}
{"smiles": "Cc1cc(OCCC(=O)Nc2cccc(F)c2)nnc1C", "Mtb glucose medium": 15.46, "Mtb cholesterol medium": "-1.69 & -0.1575"}
{"smiles": "COC1CCCN(C(=O)NCc2ccc(C(=O)N(C)C(C)C)cc2)C1", "stereo": "centres unmarked", "Mtb glucose medium": "-3.713 & -13.17", "Mtb cholesterol medium": -22.85}
{"smiles": "[H][C@@]12CN(C(=O)NCC)C[C@]1([H])OCC(=O)N2CC1CC1", "Mtb glucose medium": "3.924 & 5.636", "Mtb cholesterol medium": -10.39}
{"smiles": "O=C(NCc1csc(-c2cnccn2)n1)c1cnn2c1CCCC2", "Mtb glucose medium": -11.19, "Mtb cholesterol medium": -0.507}
{"smiles": "O=C(NCC1CC1)C1CN(C(=O)c2cccs2)CC12CCOCC2", "stereo": "centres unmarked", "Mtb glucose medium": 34.92, "Mtb cholesterol medium": 27.87}
{"smiles": "Cc1noc(OCc2csc(C)n2)n1", "Mtb glucose medium": -15.02, "Mtb cholesterol medium": -0.1024}
{"smiles": "Cc1nnsc1-c1nnc2sc(C3CCC3)nn12", "Mtb glucose medium": "6.071 & -3.219", "Mtb cholesterol medium": 3.319}
{"smiles": "Cc1nccn1-c1ccc(=O)n(CCNC(=O)c2ccccn2)n1", "Mtb glucose medium": -24.61, "Mtb cholesterol medium": 22.79}
{"smiles": "CCc1nnc2n1CCN(CC(=O)Nc1cc(C)on1)C2", "Mtb glucose medium": 0.3316, "Mtb cholesterol medium": 14.47}
{"smiles": "Cc1nnsc1CN1CCCC1c1nc(-c2ccccc2)no1", "stereo": "centres unmarked", "Mtb glucose medium": 4.199, "Mtb cholesterol medium": 6.15}
{"smiles": "Cc1cccc(C(=O)N2CCC3(CC2)CC(c2ccccc2)C(=O)N3)c1", "stereo": "centres unmarked", "Mtb glucose medium": "-2.592 & 20.82", "Mtb cholesterol medium": -1.81}
{"smiles": "O=C(CCn1ccc2cc(Br)ccc21)/N=c1\\[nH]nc(C2CCCO2)s1", "stereo": "centres unmarked", "Mtb glucose medium": 23.81, "Mtb cholesterol medium": -3.157}
{"smiles": "COc1nn(C)cc1-c1nnc(SCc2cccnc2)n1C", "Mtb glucose medium": "-29.17 & -5.132", "Mtb cholesterol medium": -8.245}
{"smiles": "CN(C)C(=O)c1cccc(CCNS(=O)(=O)c2ccccc2)c1", "Mtb glucose medium": -2.123, "Mtb cholesterol medium": 33.2}
{"smiles": "Cc1ccc(C(C)NC(=O)Cc2c(C)nc3cc(=O)[nH]n3c2C)s1", "stereo": "centres unmarked", "Mtb glucose medium": 2.369, "Mtb cholesterol medium": -3.523}
{"smiles": "CCc1nc2c(NCC3COc4c(cccc4OC)C3)ncnc2o1", "stereo": "centres unmarked", "Mtb glucose medium": 64.54, "Mtb cholesterol medium": 13.62}
{"smiles": "O=C(c1ccc2c(c1)[nH]c(=O)n2C1CCCC1)N1CCSCC1", "Mtb glucose medium": 10.95, "Mtb cholesterol medium": -1.549}
{"smiles": "CN(Cc1ccco1)Cc1cncc2c1CCN(S(C)(=O)=O)C2.Cl.Cl", "Mtb glucose medium": -2.829, "Mtb cholesterol medium": -3.636}
{"smiles": "O=C(Cn1cc(-c2ccccc2)ncc1=O)Nc1nccs1", "Mtb glucose medium": -20.87, "Mtb cholesterol medium": -19.1}
{"smiles": "O=C(Cn1cnc(NC(=O)CC2CCCC2)n1)NCc1ccccc1", "Mtb glucose medium": -18.43, "Mtb cholesterol medium": -8.786}
{"smiles": "CS(=O)(=O)N1Cc2ccccc2CC2(CCN(Cc3ccncc3)C2)C1", "stereo": "centres unmarked", "Mtb glucose medium": -4.069, "Mtb cholesterol medium": -4.653}
{"smiles": "C[C@@H]1CN(C(=O)c2ccc(=O)[nH]c2)CC[C@@]1(O)C1CCOCC1", "Mtb glucose medium": 0.4272, "Mtb cholesterol medium": "-4.508 & -1.798"}
{"smiles": "CCc1c(O)nc(SCC(=O)c2ccccc2)n(-c2ccccc2)c1=O", "Mtb glucose medium": "-0.8919 & 4.101", "Mtb cholesterol medium": -18.64}
{"smiles": "CCOCCC1(CNC(=O)c2ccc(C)nc2)CCCC1", "Mtb glucose medium": 38.89, "Mtb cholesterol medium": 14.36}
{"smiles": "CC(Cc1ccco1)NC(=O)Nc1ccc(N(C)C)nc1", "stereo": "centres unmarked", "Mtb glucose medium": 17.09, "Mtb cholesterol medium": 17.52}

Repeated from the top, 5 entries:

SMILES,Mtb glucose medium,Mtb cholesterol medium
CC(C)N(C)S(=O)(=O)N1CCN(Cc2ccco2)CC1,-27.39 & 2.366,2.12
CN1CCN(C(=O)CC2CCN(CCc3ccccn3)CC2)CC1,14.97,-4.162
[H][C@@]12CN(c3ncccn3)C[C@@H](C(=O)NCCOC)[C@]1([H])CCO2,1.65,-5.162
CCC1CN(C(=O)c2cc(CN(C)CCc3ccccc3)on2)CCO1 (centres unmarked),-3.761,-6.487
O=C(CCCc1nc2ccccc2[nH]1)N1CCCC1c1ccncc1 (centres unmarked),-16.37,-1.824 & -25.26

The values are deposited in ChEMBL (CHEMBL3988442, “University of Dundee, Small-Polar-MMV Screening Library” (2021)).